According to patent publication US20260079169A1, “VOLATILE ORGANIC COMPOUNDS AS MARKERS FOR CELLULAR COMMUNICATION” (Technion Research and Development Foundation Limited, priority 2020, published 2026):
The amount applied is not stated for every result.

Columns and labels:
[1] = tested on: A549, H1299, H1975 human lung cancer lines and BEAS-2B normal cell line, each cultured alone; experiment: VOCs headspace analysis (ITEX GC-MS) of mono-culture groups (Format-1), bulk cell samples 1×10^4 cells; assay type: cell-based; design: key to Category (VOC increased or decreased relative to the control): ↑: Increased; ↓: decreased; ↑*: <0.01; ↑**: <0.001; conditions: for Category (VOC increased or decreased relative to the control): mono-culture groups (Format-1), averaged peak area (n = 3)
[2] = tested on: different-cell pairs of BEAS-2B, A549, H1299, H1975 without physical contact under a mutual headspace; experiment: VOCs headspace analysis (ITEX GC-MS) of different-cell pair co-culture headspace groups (Format-3), bulk cell samples; assay type: cell-based, human; conditions: bulk 1 × 10^4 cell
[3] = A (BEAS-2B) mono-culture, bulk 1 × 10^4 cell
[4] = B (A549) mono-culture, bulk 1 × 10^4 cell
[5] = C (H1299) mono-culture, bulk 1 × 10^4 cell
[6] = D (H1975) mono-culture, bulk 1 × 10^4 cell

Q: Which “VOC area under curve (AUC) normalized by STD AUC, A” value ([1]; bulk 1 × 10^4 cell, A: BEAS-2B mono-culture headspace) does the source give for `C=C(C)CCC(C)CC` (centres unmarked) [VOC99] here?
A: 5.971

Q: What about the “VOC area under curve (AUC) normalized by STD AUC, B” value ([1]; bulk 1 × 10^4 cell, B: A549 mono-culture headspace) of the same compound?
A: 8.012

Q: And the “VOC area under curve (AUC) normalized by STD AUC, C” value ([1]; bulk 1 × 10^4 cell, C: H1299 mono-culture headspace)?
A: 0

Q: What about the “VOC area under curve (AUC) normalized by STD AUC, D” value ([1]; bulk 1 × 10^4 cell, D: H1975 mono-culture headspace) of the same compound?
A: 0

Q: And the “VOC area under curve (AUC) normalized by STD AUC, B + C” value ([2]; A549 + H1299)?
A: 2.047

Q: What about the “VOC area under curve (AUC) normalized by STD AUC, B + D” value ([2]; A549 + H1975) of the same compound?
A: 0

Q: What about the “VOC area under curve (AUC) normalized by STD AUC, A + B” value ([2]; BEAS-2B + A549) of the same compound?
A: 8.012

Q: What about the “VOC area under curve (AUC) normalized by STD AUC, A + C” value ([2]; BEAS-2B + H1299) of the same compound?
A: 2.549

Q: What about the “VOC area under curve (AUC) normalized by STD AUC, A + D” value ([2]; BEAS-2B + H1975) of the same compound?
A: 6.62

Q: And the “VOC area under curve (AUC) normalized by STD AUC, C + D” value ([2]; H1299 + H1975)?
A: 0

Q: With `CCCCCC(O)CC` (centres unmarked) [VOC91] as the compound, how does the “VOC level in headspace, area under curve (AUC) normalized by STD AUC” value (“VOC level … (AUC) normalized by STD AUC” for short) [1, 3] read?
A: 0

Q: What about the “VOC level … (AUC) normalized by STD AUC” value [1, 4] of the same compound?
A: 0

Q: And the “VOC level … (AUC) normalized by STD AUC” value [1, 5]?
A: 0

Q: What about the “VOC level … (AUC) normalized by STD AUC” value [1, 6] of the same compound?
A: 7.744

Q: What about the “VOC level … (AUC) normalized by STD AUC” value ([2]; A + B (BEAS-2B + A549)) of the same compound?
A: 0

Q: What about the “VOC level … (AUC) normalized by STD AUC” value ([2]; A + C (BEAS-2B + H1299)) of the same compound?
A: 0

Q: And the “VOC level … (AUC) normalized by STD AUC” value ([2]; A + D (BEAS-2B + H1975))?
A: 5.868

Q: And the “VOC level … (AUC) normalized by STD AUC” value ([2]; B + C (A549 + H1299))?
A: 0

Q: What about the “VOC level … (AUC) normalized by STD AUC” value ([2]; B + D (A549 + H1975)) of the same compound?
A: 7.186

Q: And the “VOC level … (AUC) normalized by STD AUC” value ([2]; C + D (H1299 + H1975))?
A: 2.36

Q: Which “VOC level … (AUC) normalized by STD AUC” value [1, 3] does the source give for `CCCCC(=O)C(=O)CCCC` [VOC63] here?
A: 0

Q: What about the “VOC level … (AUC) normalized by STD AUC” value [1, 4] of the same compound?
A: 0

Q: And the “VOC level … (AUC) normalized by STD AUC” value [1, 5]?
A: 5.0214

Q: And the “VOC level … (AUC) normalized by STD AUC” value [1, 6]?
A: 0

Q: And the “VOC level … (AUC) normalized by STD AUC” value ([2]; A + B (BEAS-2B + A549))?
A: 0

Q: What about the “VOC level … (AUC) normalized by STD AUC” value ([2]; A + C (BEAS-2B + H1299)) of the same compound?
A: 3.744

Q: And the “VOC level … (AUC) normalized by STD AUC” value ([2]; A + D (BEAS-2B + H1975))?
A: 0

Q: What about the “VOC level … (AUC) normalized by STD AUC” value ([2]; B + C (A549 + H1299)) of the same compound?
A: 1.929

Q: And the “VOC level … (AUC) normalized by STD AUC” value ([2]; B + D (A549 + H1975))?
A: 0

Q: What about the “VOC level … (AUC) normalized by STD AUC” value ([2]; C + D (H1299 + H1975)) of the same compound?
A: 0

Q: Which “Category (VOC increased or decreased relative to the control)” value ([1]; 24 h incubation) does the source give for `CC(=O)c1ccc(C(C)=O)cc1` [1,4-Diacetylbenzene] here?
A: ↑* (↑*: <0.01)

Q: How did the “VOC level … (AUC) normalized by STD AUC” value [1, 3] turn out when `CC(C)(C)c1cc(C=O)cc(C(C)(C)C)c1O` [VOC34] was run?
A: 4.548

Q: And the “VOC level … (AUC) normalized by STD AUC” value [1, 4]?
A: 0

Q: And the “VOC level … (AUC) normalized by STD AUC” value [1, 5]?
A: 0

Q: And the “VOC level … (AUC) normalized by STD AUC” value [1, 6]?
A: 4.362

Q: What about the “VOC level … (AUC) normalized by STD AUC” value ([2]; A + B (BEAS-2B + A549)) of the same compound?
A: 2.218

Q: What about the “VOC level … (AUC) normalized by STD AUC” value ([2]; A + C (BEAS-2B + H1299)) of the same compound?
A: 2.389

Q: And the “VOC level … (AUC) normalized by STD AUC” value ([2]; A + D (BEAS-2B + H1975))?
A: 7.375

Q: And the “VOC level … (AUC) normalized by STD AUC” value ([2]; B + C (A549 + H1299))?
A: 0

Q: And the “VOC level … (AUC) normalized by STD AUC” value ([2]; B + D (A549 + H1975))?
A: 1.819

Q: And the “VOC level … (AUC) normalized by STD AUC” value ([2]; C + D (H1299 + H1975))?
A: 0

Q: Which results are given for `Cc1cc(C)nc(C)c1` [2,4,6-Trimethylpyridine]?
A: Category (VOC increased or decreased relative to the control) ([1]; 24 h incubation): ↑; Category (VOC increased or decreased relative to the control) ([1]; 48 h incubation): ↑; Category (VOC increased or decreased relative to the control) ([1]; 72 h incubation): ↑

Q: Which results are given for `CCCC(C)CCCCC(C)CC` (centres unmarked) [Undecane, 3,8-dimethyl-]?
A: Category (VOC increased or decreased relative to the control) ([1]; 24 h incubation): ↑* (↑*: <0.01); Category (VOC increased or decreased relative to the control) ([1]; 72 h incubation): ↑* (↑*: <0.01)

Q: `CC(=O)CCC=C(C)C` [2-Methyl-2-hepten-6-one] was tested. Which “Category (VOC increased or decreased relative to the control)” value ([1]; 24 h incubation) did it give?
A: ↑* (↑*: <0.01)

Q: What about the “Category (VOC increased or decreased relative to the control)” value ([1]; 72 h incubation) of the same compound?
A: ↑* (↑*: <0.01)

Q: With `CCOCC` [Diethyl ether] as the compound, how does the “Category (VOC increased or decreased relative to the control)” value ([1]; 48 h incubation) read?
A: ↑* (↑*: <0.01)

Q: With `CCCCCCCCC=O` [Nonanal] as the compound, how does the “Category (VOC increased or decreased relative to the control)” value ([1]; 24 h incubation) read?
A: ↑

Q: Which “Category (VOC increased or decreased relative to the control)” value ([1]; 24 h incubation) does the source give for `CCCCCCC(C)CC(C)CCC` (centres unmarked) [Dodecane, 4,6-dimethyl-] here?
A: ↑* (↑*: <0.01)

Q: And the “Category (VOC increased or decreased relative to the control)” value ([1]; 72 h incubation)?
A: ↑* (↑*: <0.01)

Q: With `CCCCC(O)CCC` (centres unmarked) [5-Octanol] as the compound, how does the “Category (VOC increased or decreased relative to the control)” value ([1]; 24 h incubation) read?
A: ↑

Q: With `CCCCCC(O)CC` (centres unmarked) [3-Octanol] as the compound, how does the “Category (VOC increased or decreased relative to the control)” value ([1]; 24 h incubation) read?
A: ↑

Q: Which “Category (VOC increased or decreased relative to the control)” value ([1]; 48 h incubation) does the source give for `CCCC(C)=O` [2-Pentanone] here?
A: ↑* (↑*: <0.01)

Q: With `CCCCO` [1-Butanol] as the compound, how does the “Category (VOC increased or decreased relative to the control)” value ([1]; 72 h incubation) read?
A: ↓

Q: How did the “Category (VOC increased or decreased relative to the control)” value ([1]; 48 h incubation) turn out when `CC(C)C(=O)OCC(C)(C)C(OC(=O)C(C)C)C(C)C` (centres unmarked) [2,2,4-Trimethyl-1,3-pentanediol diisobutyrate] was run?
A: ↑

Q: Which results are given for `CCCCCCCCCCCCO` [1-Dodecanol]?
A: Category (VOC increased or decreased relative to the control) ([1]; 24 h incubation): ↑* (↑*: <0.01); Category (VOC increased or decreased relative to the control) ([1]; 48 h incubation): ↑** (↑**: <0.001)
